In publication PMC10304680:

Molecular target: T1, Smlt2053 (TetR-like regulator, PsrA ortholog) (Stenotrophomonas maltophilia K279a) (UniProt B2FNQ4)
T1 sequence (looked up): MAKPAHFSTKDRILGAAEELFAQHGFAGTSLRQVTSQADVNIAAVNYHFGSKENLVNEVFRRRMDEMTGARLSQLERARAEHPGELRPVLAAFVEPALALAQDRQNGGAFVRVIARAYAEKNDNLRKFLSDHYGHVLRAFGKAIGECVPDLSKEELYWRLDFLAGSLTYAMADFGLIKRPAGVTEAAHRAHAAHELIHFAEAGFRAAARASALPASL
Test: EMSA
Details: Tris-glycine (10 mM to 40 mM), 20 mM KCl, 7.5% glycerol, 0.01 mg/mL BSA, 1 mM DTT, 20 ng/uL poly(dI-dC), 50 ng probe in 20 uL, 30 min at 4 C, binding pH not stated, recombinant protein, residues 1-217, letters put together from the description

Which results are given for “GGGATGTCTCCAATGGAATCGGGCCGCTGATGGCCCGAAGGGTAACATGAAAAAAACCCGCGTCGGGACGCGGGCTTAGCCTGATAAACGTAGGCGAATTGTAAAAGATAAAGCGGCGGCATGGTAGTGCCGGCCGCTGGCCGGCATTGGGCGCCATTCAACCTCGGGGCTGCCGGCCAGCGGCCGGCACTACCCCATTCACCCACCTGAGTGAAATCTGACCGGATCGGCCGATTTTGCTGCACTGCAAAATGCCATACGGTACCGTCTGGTCCTAGTATCAAACAATCGTTTGATTAAGGTCCGCCCACC (double strand) [Psmlt2053]”?
binding result (13-methyltetradecanoic acid (iso-C15:0), 429 nM protein): binds more weakly; binding result (DSF (cis-11-methyl-2-dodecenoic acid) 5-500 uM, 429 nM protein): binds more weakly; binding result (lauric acid (C12:0), partial effect at mM, 429 nM protein): binds more weakly; binding result (no fatty acid, second complex at higher protein): binds; binding result (palmitic acid (C16:0), 429 nM protein): binds more weakly; binding result (sodium butyrate (C4), no effect, 429 nM protein): binds

Protein sequences can lack the tags named with them. The exact form of at least one protein or probe is not confirmed. Weaker means in comparison with the reference protein, sequence or condition of that experiment.
